In patent US20240400596A1, “PLATINUM-BASED PHOTOINITIATOR AND PHOTOCROSSLINKER, THEIR USE FOR ADDUCT FORMATION” (City University of Hong Kong, priority 2023, published 2024):

Test: Gelation assay (vial inversion)
Conditions: upon irradiation 365 nm; for formation of gelatin hydrogel: 5% gelatin; for hydrogelation of acrylamide: 10% acrylamide/bis-acrylamide (29:1)

| SMILES | formation of gelatin hydrogel | hydrogelation of acrylamide |
| --- | --- | --- |
| CC(=O)[O][Pt]([NH2])([NH2])([Cl])([Cl])[O]C(C)=O [cisPt(IV)-1] | clearly observed | transformed into a solid-like gel |
| N.N.[Cl][Pt][Cl] [cisplatin, reference compound] | not | not |
